Results on 9 molecules are retold here after PMC7930092.

Protein sequences, listed by entry. Tags and fused reporters are not part of them.
UniProt J9SQF3: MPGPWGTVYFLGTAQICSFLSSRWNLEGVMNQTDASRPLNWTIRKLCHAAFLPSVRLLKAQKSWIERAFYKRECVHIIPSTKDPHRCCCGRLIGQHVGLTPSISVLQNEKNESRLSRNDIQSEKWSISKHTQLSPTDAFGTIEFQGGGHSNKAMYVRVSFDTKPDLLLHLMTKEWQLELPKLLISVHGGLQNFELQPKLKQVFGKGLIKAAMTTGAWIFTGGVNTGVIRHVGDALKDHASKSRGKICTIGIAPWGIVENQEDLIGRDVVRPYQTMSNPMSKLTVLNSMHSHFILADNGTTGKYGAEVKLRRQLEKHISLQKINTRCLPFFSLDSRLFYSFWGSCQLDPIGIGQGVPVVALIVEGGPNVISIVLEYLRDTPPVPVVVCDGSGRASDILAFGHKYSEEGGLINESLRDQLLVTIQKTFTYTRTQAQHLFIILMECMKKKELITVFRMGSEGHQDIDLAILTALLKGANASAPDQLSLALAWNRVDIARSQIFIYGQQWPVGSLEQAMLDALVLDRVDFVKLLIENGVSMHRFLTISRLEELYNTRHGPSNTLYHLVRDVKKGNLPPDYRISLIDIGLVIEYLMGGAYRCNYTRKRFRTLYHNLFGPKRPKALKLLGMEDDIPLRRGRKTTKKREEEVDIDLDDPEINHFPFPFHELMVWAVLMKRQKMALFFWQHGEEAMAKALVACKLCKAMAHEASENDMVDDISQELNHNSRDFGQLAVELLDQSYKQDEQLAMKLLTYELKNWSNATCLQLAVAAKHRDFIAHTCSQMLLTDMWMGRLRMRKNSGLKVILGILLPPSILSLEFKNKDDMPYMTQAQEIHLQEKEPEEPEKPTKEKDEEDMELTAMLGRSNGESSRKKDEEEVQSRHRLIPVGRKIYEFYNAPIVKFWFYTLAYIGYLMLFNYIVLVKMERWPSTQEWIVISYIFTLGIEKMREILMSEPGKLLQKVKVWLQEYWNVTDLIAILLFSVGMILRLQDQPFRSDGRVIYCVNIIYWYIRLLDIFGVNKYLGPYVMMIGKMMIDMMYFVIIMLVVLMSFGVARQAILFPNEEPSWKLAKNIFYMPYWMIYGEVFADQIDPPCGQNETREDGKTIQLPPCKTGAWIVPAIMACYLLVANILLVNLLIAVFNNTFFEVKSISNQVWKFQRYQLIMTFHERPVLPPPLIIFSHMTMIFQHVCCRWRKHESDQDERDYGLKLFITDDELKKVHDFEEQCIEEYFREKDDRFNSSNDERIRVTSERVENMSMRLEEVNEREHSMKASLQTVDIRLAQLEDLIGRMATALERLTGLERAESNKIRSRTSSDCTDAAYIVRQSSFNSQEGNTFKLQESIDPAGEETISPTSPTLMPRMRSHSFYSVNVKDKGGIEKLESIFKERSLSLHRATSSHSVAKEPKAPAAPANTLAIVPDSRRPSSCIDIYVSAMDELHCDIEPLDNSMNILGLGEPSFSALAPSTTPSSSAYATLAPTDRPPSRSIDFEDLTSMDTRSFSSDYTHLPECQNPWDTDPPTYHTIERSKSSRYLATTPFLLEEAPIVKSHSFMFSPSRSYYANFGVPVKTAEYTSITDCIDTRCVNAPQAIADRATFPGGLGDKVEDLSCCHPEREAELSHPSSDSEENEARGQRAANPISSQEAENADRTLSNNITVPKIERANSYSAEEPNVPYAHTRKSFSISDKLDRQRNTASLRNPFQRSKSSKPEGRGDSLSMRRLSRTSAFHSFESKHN
UniProt P28741: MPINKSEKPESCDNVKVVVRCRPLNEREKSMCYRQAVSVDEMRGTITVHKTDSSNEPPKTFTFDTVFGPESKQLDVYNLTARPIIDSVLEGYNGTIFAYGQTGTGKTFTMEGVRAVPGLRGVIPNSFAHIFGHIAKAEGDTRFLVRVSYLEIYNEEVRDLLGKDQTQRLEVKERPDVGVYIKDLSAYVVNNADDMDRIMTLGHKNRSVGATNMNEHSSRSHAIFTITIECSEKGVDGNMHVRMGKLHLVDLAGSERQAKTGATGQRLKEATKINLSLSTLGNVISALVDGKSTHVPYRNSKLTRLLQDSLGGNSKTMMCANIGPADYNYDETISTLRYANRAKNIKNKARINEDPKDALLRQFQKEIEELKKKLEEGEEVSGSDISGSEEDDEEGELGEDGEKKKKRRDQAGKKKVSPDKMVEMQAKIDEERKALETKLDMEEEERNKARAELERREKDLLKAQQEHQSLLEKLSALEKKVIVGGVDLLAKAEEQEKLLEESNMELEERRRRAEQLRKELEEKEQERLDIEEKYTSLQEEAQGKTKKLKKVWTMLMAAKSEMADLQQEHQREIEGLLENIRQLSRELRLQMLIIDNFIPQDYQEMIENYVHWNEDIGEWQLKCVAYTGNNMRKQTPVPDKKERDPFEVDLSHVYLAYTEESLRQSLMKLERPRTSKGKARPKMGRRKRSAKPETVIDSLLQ
UniProt P33175: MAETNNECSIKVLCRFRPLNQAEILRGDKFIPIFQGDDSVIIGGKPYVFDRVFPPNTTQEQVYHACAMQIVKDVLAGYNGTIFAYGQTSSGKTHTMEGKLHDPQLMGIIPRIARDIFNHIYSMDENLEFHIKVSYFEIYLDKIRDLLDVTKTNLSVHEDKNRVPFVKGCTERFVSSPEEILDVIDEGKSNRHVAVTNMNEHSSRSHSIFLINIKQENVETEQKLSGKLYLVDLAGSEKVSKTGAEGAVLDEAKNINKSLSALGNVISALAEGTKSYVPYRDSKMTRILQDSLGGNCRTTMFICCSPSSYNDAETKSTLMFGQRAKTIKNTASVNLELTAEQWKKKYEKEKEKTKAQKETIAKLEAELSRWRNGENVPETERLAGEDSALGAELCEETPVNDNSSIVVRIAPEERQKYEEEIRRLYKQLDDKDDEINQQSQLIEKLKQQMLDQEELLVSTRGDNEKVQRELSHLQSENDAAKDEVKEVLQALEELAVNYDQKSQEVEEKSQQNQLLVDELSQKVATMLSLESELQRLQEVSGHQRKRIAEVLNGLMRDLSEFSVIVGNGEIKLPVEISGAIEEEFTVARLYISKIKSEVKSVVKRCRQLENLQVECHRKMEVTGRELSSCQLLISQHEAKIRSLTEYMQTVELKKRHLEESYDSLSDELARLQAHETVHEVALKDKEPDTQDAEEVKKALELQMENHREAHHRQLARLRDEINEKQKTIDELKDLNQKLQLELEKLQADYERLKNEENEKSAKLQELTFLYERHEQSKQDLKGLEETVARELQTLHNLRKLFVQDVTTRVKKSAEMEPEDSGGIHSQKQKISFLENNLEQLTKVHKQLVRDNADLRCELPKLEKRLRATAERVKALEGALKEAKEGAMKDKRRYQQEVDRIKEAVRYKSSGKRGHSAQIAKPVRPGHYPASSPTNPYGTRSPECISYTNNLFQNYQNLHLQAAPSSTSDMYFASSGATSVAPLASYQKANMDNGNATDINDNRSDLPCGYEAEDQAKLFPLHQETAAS
UniProt Q61768: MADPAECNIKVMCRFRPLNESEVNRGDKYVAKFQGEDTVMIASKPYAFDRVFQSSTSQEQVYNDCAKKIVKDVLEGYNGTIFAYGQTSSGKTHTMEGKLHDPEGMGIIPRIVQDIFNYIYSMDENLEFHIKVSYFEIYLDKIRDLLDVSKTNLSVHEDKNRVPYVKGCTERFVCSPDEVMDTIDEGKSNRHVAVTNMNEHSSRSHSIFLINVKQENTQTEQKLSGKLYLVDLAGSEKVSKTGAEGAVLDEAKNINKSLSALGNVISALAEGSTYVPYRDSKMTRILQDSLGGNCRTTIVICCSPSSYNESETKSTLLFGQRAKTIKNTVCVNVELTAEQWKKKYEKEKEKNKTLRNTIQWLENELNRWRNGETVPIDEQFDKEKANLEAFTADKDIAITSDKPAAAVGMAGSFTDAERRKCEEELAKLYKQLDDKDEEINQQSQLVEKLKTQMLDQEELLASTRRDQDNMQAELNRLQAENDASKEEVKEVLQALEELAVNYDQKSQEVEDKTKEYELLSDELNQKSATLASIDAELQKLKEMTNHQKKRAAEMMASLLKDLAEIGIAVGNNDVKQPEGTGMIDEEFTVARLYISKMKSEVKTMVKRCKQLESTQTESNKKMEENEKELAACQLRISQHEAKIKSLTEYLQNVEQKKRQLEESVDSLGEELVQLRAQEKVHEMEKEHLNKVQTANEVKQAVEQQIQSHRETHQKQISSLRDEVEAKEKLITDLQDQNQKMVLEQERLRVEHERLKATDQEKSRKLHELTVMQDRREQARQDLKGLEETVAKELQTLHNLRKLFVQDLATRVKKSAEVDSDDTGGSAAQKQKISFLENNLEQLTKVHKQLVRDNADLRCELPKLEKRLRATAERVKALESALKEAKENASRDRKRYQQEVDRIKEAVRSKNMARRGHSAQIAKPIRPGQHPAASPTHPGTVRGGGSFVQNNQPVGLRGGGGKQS

The target in test [1] is T1, ATF4-His (aa 233-349) (UniProt Q06507).
T1 sequence: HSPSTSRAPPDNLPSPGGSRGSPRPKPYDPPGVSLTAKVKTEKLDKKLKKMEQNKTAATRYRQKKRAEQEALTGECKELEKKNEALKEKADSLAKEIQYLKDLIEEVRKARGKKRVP
The test can be described thus: co-IP; ATF4-His fragments co-expressed with TRPM3-Flag or KIF17-Flag in HEK293T cells; lysates immunoprecipitated with a His antibody, immunoblotted with His or Flag antibody.

Test [2] has as its target T2, activating transcription factor 4 (ATF4), endogenous in mouse DRG (mouse (endogenous in DRG)) (UniProt Q06507).
T2 sequence: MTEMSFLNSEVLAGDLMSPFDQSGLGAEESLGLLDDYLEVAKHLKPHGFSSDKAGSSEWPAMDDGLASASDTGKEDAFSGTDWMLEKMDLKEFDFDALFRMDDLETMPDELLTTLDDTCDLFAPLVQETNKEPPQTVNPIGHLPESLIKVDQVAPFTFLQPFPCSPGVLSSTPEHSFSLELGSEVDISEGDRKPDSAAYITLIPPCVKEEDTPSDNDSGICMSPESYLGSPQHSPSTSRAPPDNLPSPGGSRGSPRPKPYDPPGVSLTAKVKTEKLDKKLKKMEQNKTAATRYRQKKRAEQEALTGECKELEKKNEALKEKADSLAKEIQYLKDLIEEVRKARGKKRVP
The test can be described thus: co-IP; mouse DRG lysates in co-IP RIPA buffer (20 mM Tris-HCl pH 7.5, 150 mM NaCl, 0.1% Triton X-100, 1% sodium deoxycholate); 5-10 ug ATF4 or TRPM3 antibody at 4 °C overnight, protein A/G beads 4 h; immunoblot; also done after heat stimulation of the hind paws (43 °C, 30 s; 2-40 min) and after intrathecal ATF4 siRNA.

The target in test [3] is T3, ATF4-His (aa 117-232) (UniProt Q06507).
T3 sequence: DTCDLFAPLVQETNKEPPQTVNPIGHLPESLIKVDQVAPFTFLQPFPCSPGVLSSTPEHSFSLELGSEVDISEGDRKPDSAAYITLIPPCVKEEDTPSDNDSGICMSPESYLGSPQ
As to the kind of experiment: co-IP; ATF4-His fragments co-expressed with TRPM3-Flag or KIF17-Flag in HEK293T cells; lysates immunoprecipitated with a His antibody, immunoblotted with His or Flag antibody. On the technique in general: A western blot detects proteins with antibodies after separation by electrophoresis.

For test [4], the target named is T2, activating transcription factor 4 (ATF4), endogenous in mouse DRG (mouse (endogenous in DRG)). As to the kind of experiment: co-IP; mouse DRG lysates in co-IP RIPA buffer (20 mM Tris-HCl pH 7.5, 150 mM NaCl, 0.1% Triton X-100, 1% sodium deoxycholate); 5-10 ug ATF4 or TRPM3 antibody at 4 °C overnight, protein A/G beads 4 h; immunoblot; also done after heat stimulation of the hind paws (43 °C, 30 s; 2-40 min) and after intrathecal ATF4 siRNA. This is another data set of the same source.

The target of test [5] is transient receptor potential cation channel subfamily M member-3 (TRPM3), endogenous in mouse DRG (mouse (endogenous in DRG)) (UniProt J9SQF3). The test is described as above.

Read-outs that look alike come from different tables or passages of the source. These are yes or no findings as the source states them, for the method shown. Binding seen in cells or lysates may run through a third protein. Some binding calls cover weakened binding; strength is not graded here. For some of these results: Where a sequence is shown, tags or fusion partners need not be part of it.

For “Full-length TRPM3-Flag (from UniProt J9SQF3 1-1732)”, in test [1], the binding result is on record as “binds”.
“KIF3A, endogenous in mouse DRG (from UniProt P28741 1-701)”: the binding result in test [2] is reported as “binds weakly”.
Same read-out and setting: the same measure for “KIF5A, endogenous in mouse DRG (from UniProt P33175 1-1027)”: “binds weakly”; for “KIF5B, endogenous in mouse DRG (from UniProt Q61768 1-963)”: “binds weakly”; for “transient receptor potential cation channel subfamily M member-3 (TRPM3), endogenous in mouse DRG (from UniProt J9SQF3 1-1732)”: “binds”.

B1: Full-length KIF17-Flag (protein, UniProt Q99PW8 1-1038)
chain: MASESVKVVVRCRPMNKRERELSCQSVVTVDSARGQCFIQNPGAADEPPKQFTFDGAYYIEHFTEQIYNEIAYPLVEGVTEGYNGTIFAYGQTGSGKSFTMQGLPDPPCQRGIIPRAFEHVFESVQCAENTKFLVRASYLEIYNEDVHDLLGADTKQRLELKEHPEKGVYVKGLSMHTVHNVAQCERVMETGWKNRAVGYTLMNKDSSRSHSIFTINIEIYAVDERGKDHLRAGKLNLVDLAGSERQSKTGATGERLKEATKINLSLSALGNVISALVDGRCKHIPYRDSKLTRLLQDSLGGNTKTLMVACLSPADNNYDETLSTLRYANRAKNIKNKPRINEDPKDALLREYQEEIKRLKAILAQQMGPGNLSALLSTQTPPGPVQSEEKLLSPTTVQQDTEAEKQLIREEYEERLARLKADYEAEQESRVRLQEDITAMRNSYDVKLSTLQENLRKEKETEAILKAEVLCKTEVMSRAELASGPEYSPPLQYETAVKPTILSMPDMPPSGKVTKSQAPLAFEEPHGETSRSEFSFESNECSTLEDSATSEAFPGPEEFSNMEFSMAAALTESRYLPEEYLGGQEAAASPLEAERYVQENEPSLEPLRILASLQDPFAEVEAKLARLSSTVAMSDSSQTVVPQIPKQPSSADLLEPSDTKSEADVAVADNVVLGTEPDVNLRVAEEVVSEAETGVWMESEAQVAHVAQVSEEAQPQPLLAMVSVRRESVGVEVAVLTEEELQPVDQQQVLARLQLLEQQVVGGEQAKNKDLREKHKRRKRYADERKKQLVAALQNSDEDGGDWVLLNVYDSIQEEVRAKSKLLEKMQRKLRAAEVEIKDLQSEFQLEKIDYLATIRRQERDSMLFQQLLEQVQPLIRRDCNYSNLEKIRRESSWDEDNGFWKIPDPIILKTSLPVVPTGTQNKPARKTSAVDSGEPHMQEEDRYKLMLSRSDSENIASNYFRSKRASQILSTDPMKSLTYHNSPPGLNSSLSNNSALPPTQTPEMPQPRPFRLESLDIPFSKAKRKKSKNSFGGEPL
As to B1, the binding entry in test [3] is “binds”.

B2: KIF17, endogenous in mouse DRG (protein, UniProt Q99PW8 1-1038)
chain: B1 chain
Regarding B2, the binding entry in test [4] and in test [5] was “binds” each time.

B3: KIFC2, endogenous in mouse DRG (protein, UniProt O08672 1-792)
chain: MYAFYSLLIYIFYSLFRRDGGAAAVSDPGDPTQKSGGQPRGRRRPDQFTSELWSELNSLAGCSESEDGQKGAEGGAAEVSLEEALMRLAEFLSVQLGAEESCGTTPDLGKPGEVPPLLTVTSQLLALLAWTRSPRGRQALLQGTQPTCPVQPSTLDGSLSQEESSSQPTPILDEVPRDETQEHQPLQLEEEQRVWQRLEQLILGQLEELRQQLEQQEEELSRLRLGVGVTDSEKRVQHLTLENEALKQSLSLTRDLLLHWGPGPLPRLSQEEAGALLELQGQLQEAQDTTEALRVQLGAQELQLQGLRGALRQLQQETEQNCRQELQQVHGQLAGLRARMASLRQGCGDLRGLVSTFTQSCQGSLSEAQGQVSWALGALSAGKAKTQLSEGNQAPPTGCSGRLLELKGNIRVLCRLRPAEGQPSSLVSVEPGQGGTITTCYRGRQHCFRLDWVFPQDASQEEVFRQLEPAVLSCLQGYSVCIFTYGQTGTGKTYSMEGPPEDPGIAPRALQLLFREMGTGGHHHVTLSMVEIYNEAVRDLLATGPPERLVVRQGPAGQGGIQVAGLTHWDVPNLETLHQMLSLGRSNRATAATVMNQHSSRSHALVTLTLRAASPPRPQGITGTLHLVDLAGSERVWKAGVASPVQRDPNGARRLREAQAINRSLLALGGVMAALRARRPHVPFRDSQLTRLLQPALWAGTTAVLLLQISTRAEDLGETICSLKFAERVGQVELGPARRRRAPRSGTPSSLSTDTPLTGTSCTPTPSPGSPPSTSPNSCSGLTLEPPGDPPP
As to B3, the binding result in test [4] was “binds weakly”.

B4: KIF3B, endogenous in mouse DRG (protein, UniProt Q61771 1-747)
chain: MSKLKSSESVRVVVRCRPMNGKEKAASYDKVVDVDVKLGQVSVKNPKGTSHEMPKTFTFDAVYDWNAKQFELYDETFRPLVDSVLQGFNGTIFAYGQTGTGKTYTMEGVRGDPEKRGVIPNSFDHIFTHISRSQNQQYLVRASYLEIYQEEIRDLLSKDQTKRLELKERPDTGVYVKDLSSFVTKSVKEIEHVMNVGNQNRSVGATNMNEHSSRSHAIFVITIECSEVGLDGENHIRVGKLNLVDLAGSERQAKTGAQGERLKEATKINLSLSALGNVISALVDGKSTHIPYRDSKLTRLLQDSLGGNAKTVMVANVGPASYNVEETLTTLRYANRAKNIKNKPRVNEDPKDALLREFQEEIARLKAQLEKRSIGRRKRREKRREGGGSGGGGEEEEEEGEEGEEDGDDKDDYWREQQEKLEIEKRAIVEDHSLVAEEKMRLLKEKEKKMEDLRREKDAAEMLGAKIKAMESKLLVGGKNIVDHTNEQQKILEQKRQEIAEQKRREREIQQQMESRDEETLELKETYTSLQQEVDIKTKKLKKLFSKLQAVKAEIHDLQEEHIKERQELEQTQNELTRELKLKHLIIENFIPLEEKNKIMNRSFFDDEEDHWKLHPITRLENQQMMKRPVSAVGYKRPLSQHARMSMMIRPEPRYRAENIMLLELDMPSRTTRDYEGPAISPKVQAALDAALQDEDEIQVDASSFESTASRKPKARPKSGRKSGSSSSSSGNPASQFYPQSRGLVPK
For the molecule B4, the binding result in test [4] is reported as “binds weakly”.
